Assay results reported in patent US20110178117A1 (Merck Sharp & Dohme Corp., priority 2008, published 2011).
Some results were stated once for a whole list of compounds, not compound by compound.

Sequences of proteins named here, by UniProt entry; tags and fusion partners are left off. Residues count along the entry.
UniProt Q14416, 19-872: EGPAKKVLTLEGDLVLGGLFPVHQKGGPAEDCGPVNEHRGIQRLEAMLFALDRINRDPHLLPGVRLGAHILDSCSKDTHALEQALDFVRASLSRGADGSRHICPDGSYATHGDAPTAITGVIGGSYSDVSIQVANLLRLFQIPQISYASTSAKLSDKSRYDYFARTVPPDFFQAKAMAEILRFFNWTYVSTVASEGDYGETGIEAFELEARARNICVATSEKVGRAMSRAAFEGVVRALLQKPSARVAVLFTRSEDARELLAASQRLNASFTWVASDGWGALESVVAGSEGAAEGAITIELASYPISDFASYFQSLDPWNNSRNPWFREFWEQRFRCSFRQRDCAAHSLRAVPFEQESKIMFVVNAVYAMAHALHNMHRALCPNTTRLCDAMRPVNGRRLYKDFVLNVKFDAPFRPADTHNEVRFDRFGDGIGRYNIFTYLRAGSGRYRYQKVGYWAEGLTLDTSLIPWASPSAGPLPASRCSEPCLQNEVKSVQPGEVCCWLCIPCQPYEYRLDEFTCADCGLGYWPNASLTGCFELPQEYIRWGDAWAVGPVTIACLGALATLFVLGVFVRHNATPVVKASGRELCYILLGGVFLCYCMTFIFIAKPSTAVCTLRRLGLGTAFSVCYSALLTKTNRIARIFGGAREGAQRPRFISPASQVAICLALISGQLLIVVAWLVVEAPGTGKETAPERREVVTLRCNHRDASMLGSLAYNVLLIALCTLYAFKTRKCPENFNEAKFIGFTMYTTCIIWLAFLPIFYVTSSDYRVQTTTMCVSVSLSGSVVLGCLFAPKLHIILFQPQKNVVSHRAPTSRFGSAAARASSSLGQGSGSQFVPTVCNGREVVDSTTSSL

Biological target: T1, recombinant human mGluR2 (Homo sapiens, UniProt Q14416)
T1 construct: expressed in transfected cells
Assay: FLIPR Ca2+ mobilization assay, potentiation of glutamate response
Format: cell-based
Experimental: The compounds of the present invention may be tested in a fluorescence laser imaging plate reader (FLIPR) based assay. This assay is a common functional assay to monitor Ca^2+ mobilization in whole cells expressing recombinant receptor coupled with a promiscuous G-protein. CHO dhfr-cells stably expressing recombinant human mGluR2 and Gα16 loaded with Fluo-4 AM (Invitrogen, Carlsbad Calif.) are treated with dose responses of compounds and the Ca^2+ response is monitored on a FLIPR384 (Molecular Devices, Sunnydale Calif.) for agonist activity. The potentiation response is monitored after a subsequent addition of an EC20 concentration of glutamate (900 nM). The maximum calcium response at each concentration of compound for agonist or potentiation are plotted as dose responses and the curves are fitted with a four parameters logistic equation giving EC50 and Hill coefficient using the iterative non linear curve fitting software program.

Substance: (R)-2-(6-fluorohexyl)-2,3-dihydrobenzo oxazolo[3,2-a]imidazole-7-carbonitrile [Example 1-31]
- potentiation of glutamate response (in the presence of an EC20 concentration of glutamate (900 nM)): ≥ 1.8 fold
- EC50 (potentiation, EC20 glutamate (900 nM), read-out: EC50 in potentiating the mGluR2 receptor in the FLIPR assay): < 10 µM
